These results are taken from patent US7238213B2, “Cell-based assays employing voltage and calcium dyes” (priority 2001, dated 2007).

A short description of data set [1]: Quenching efficiency of dye quenchers on voltage dye fluorescence, cell-free solution. The settings on record: for Quenching Efficiency Residual F (k): HLB30602 10 μM, quencher dye 0.5 g/L; for Quenching Efficiency F0/F: fluorescence of HLB30602 10 μM in absence/presence of quencher dye 0.5 g/L.
Data set [2] in a line: Concentration-dependent quenching of extracellular fluorescence (Stern-Volmer fit).

Consider `O=S(=O)([O-])c1cc(O)c2c(/N=N/c3ccc(Nc4ccccc4)c4c(S(=O)(=O)[O-])cccc34)cc(S(=O)(=O)[O-])cc2c1.[Na+].[Na+].[Na+]` [Acid Blue 92], for which, in data set [1], the “Quenching Efficiency Residual F (k)” value was found to be 57.60 k and the “Quenching Efficiency F0/F” value amounted to 36.

For the compound `O=S(=O)([O-])c1cccc(N=Nc2ccc(N=Nc3ccc(Nc4ccccc4)c4c(S(=O)(=O)[O-])cccc34)c3ccccc23)c1.[Na+].[Na+]` [Acid Blue 113], in data set [1], the “Quenching Efficiency Residual F (k)” value is on record as 112.50 k and the “Quenching Efficiency F0/F” value worked out at 19.

Turning to `CCN(CC)c1ccc(C(=C2C=CC(=[N+](CC)Cc3cccc(S(=O)(=O)[O-])c3)C=C2)c2ccc(N(CC)Cc3cccc(S(=O)(=O)[O-])c3)cc2)cc1.[Na+]` [Acid Violet 17], in data set [1], the “Quenching Efficiency Residual F (k)” value was determined as 6.90 k and the “Quenching Efficiency F0/F” value stood at 304.

With `O.O=C1c2ccccc2C(=O)c2c1cc(S(=O)(=O)[O-])c(O)c2O.[Na+]` [Alizarin Red S monohydrate], in data set [1], the “Quenching Efficiency Residual F (k)” value was determined as 335.10 k and the “Quenching Efficiency F0/F” value is 6.

Consider `CC(=O)Nc1ccc(S(=O)(=O)[O-])c2cc(S(=O)(=O)[O-])c(N=Nc3ccc(N=Nc4ccc(S(=O)(=O)[O-])cc4)c4ccc(S(=O)(=O)[O-])cc34)c(O)c12.[Na+].[Na+].[Na+].[Na+]` [Brilliant Black BN], for which, in data set [1], the “Quenching Efficiency Residual F (k)” value came to 19.30 k and the “Quenching Efficiency F0/F” value stood at 109.

Take `O=S1(=O)OC(c2cc(Cl)c(O)c(Br)c2)(c2cc(Cl)c(O)c(Br)c2)c2ccccc21` [Bromochlorophenol Blue]: in data set [1], the “Quenching Efficiency Residual F (k)” value was determined as 421.00 k and the “Quenching Efficiency F0/F” value is 5.

As to `Cc1cc(C2(c3cc(C)c(O)c(Br)c3)OS(=O)(=O)c3ccccc32)cc(Br)c1O` [Bromocresol Purple], in data set [1], the “Quenching Efficiency Residual F (k)” value stood at 115.60 k and the “Quenching Efficiency F0/F” value is listed as 18.

For `O=S1(=O)OC(c2cc(Br)c(O)c(Br)c2)(c2cc(Br)c(O)c(Br)c2)c2ccccc21` [Bromophenol Blue], in data set [1], the “Quenching Efficiency Residual F (k)” value turned out to be 44.90 k and the “Quenching Efficiency F0/F” value amounted to 47.

For `O=c1c(Br)cc2c(-c3ccccc3S(=O)(=O)O)c3cc(Br)c(O)c(O)c3oc-2c1O` [Bromopyrogallol Red], in data set [1], the “Quenching Efficiency Residual F (k)” value was found to be 31.60 k and the “Quenching Efficiency F0/F” value was 66.

As to `O=S1(=O)OC(c2ccc(O)c(Cl)c2)(c2ccc(O)c(Cl)c2)c2ccccc21` [Chlorophenol Red], in data set [1], the “Quenching Efficiency Residual F (k)” value is reported as 62.40 k and the “Quenching Efficiency F0/F” value was found to be 34.

Take `Cc1cc(-c2ccc(/N=N/c3c(S(=O)(=O)O)cc4cc(S(=O)(=O)O)cc(N)c4c3O)c(C)c2)ccc1/N=N/c1c(S(=O)(=O)O)cc2cc(S(=O)(=O)O)cc(N)c2c1O` [HLB30702 (Trypan Blue), Trypan Blue]: in data set [1], the “Quenching Efficiency Residual F (k)” value is 5.50 k and the “Quenching Efficiency F0/F” value is 382.

Take `C[N+](C)=c1ccc2nc3c(ccc4ccccc43)oc-2c1.[Cl-]` [MELDOLA'S BLUE]: in data set [1], the “Quenching Efficiency Residual F (k)” value is given as 2.10 k and the “Quenching Efficiency F0/F” value was 1000.

Turning to `CCN(CC)c1ccc2nc3ccc(N)cc3[n+](-c3ccccc3)c2c1.[Cl-]` [Methylene Violet 3Rax], in data set [1], the “Quenching Efficiency Residual F (k)” value came to 87.40 k and the “Quenching Efficiency F0/F” value is reported as 24.

In the case of `CC1=CC(=C(c2ccc(N)c(C)c2)c2ccc(N)c(C)c2)C=CC1=N.Cl` [New Fuchsin], in data set [1], the “Quenching Efficiency Residual F (k)” value was 3.40 k and the “Quenching Efficiency F0/F” value is recorded as 618.

In the case of `Nc1c(N=Nc2ccc([N+](=O)[O-])cc2)c(S(=O)(=O)[O-])cc2cc(S(=O)(=O)[O-])cc(O)c12.[Na+].[Na+]` [Nitro Red], in data set [1], the “Quenching Efficiency Residual F (k)” value worked out at 62.10 k and the “Quenching Efficiency F0/F” value was 34.

As for `Cc1cc(O)c(C(C)C)cc1C1(c2cc(C(C)C)c(O)cc2C)OS(=O)(=O)c2ccccc21` [Thymol Blue], in data set [1], the “Quenching Efficiency Residual F (k)” value is given as 699.00 k and the “Quenching Efficiency F0/F” value amounted to 3.

Turning to `Cc1cc(-c2ccc(/N=N/c3c(S(=O)(=O)O)cc4cc(S(=O)(=O)O)cc(N)c4c3O)c(C)c2)ccc1/N=N/c1c(S(=O)(=O)O)cc2cc(S(=O)(=O)O)cc(N)c2c1O` [Trypan Blue (Fluka), Trypan Blue], in data set [1], the “Quenching Efficiency Residual F (k)” value was 26.10 k and the “Quenching Efficiency F0/F” value is listed as 80.

Take `Cc1cc(C2(c3cc(C)c(O)c(CN(CC(=O)O)CC(=O)O)c3)OS(=O)(=O)c3ccccc32)cc(CN(CC(=O)O)CC(=O)O)c1O` [XYLENOL ORANGE]: in data set [1], the “Quenching Efficiency Residual F (k)” value is reported as 164.90 k and the “Quenching Efficiency F0/F” value amounted to 13.

`Cc1cc(-c2ccc(/N=N/c3ccc4c(S(=O)(=O)O)cc(S(=O)(=O)O)c(N)c4c3O)c(C)c2)ccc1/N=N/c1ccc2c(S(=O)(=O)O)cc(S(=O)(=O)O)c(N)c2c1O` [evans blue]: the half-quenching concentration in data set [2] (FIG. 18) turned out to be 0.38 g/L; in data set [2] (FIG. 18, converted from g/L), 0.34 mM.

As for DIAZINE BLACK, in data set [1], the “Quenching Efficiency Residual F (k)” value is 9.30 k and the “Quenching Efficiency F0/F” value came out at 226.

Direct Violet 51: in data set [1], the “Quenching Efficiency Residual F (k)” value was found to be 152.00 k and the “Quenching Efficiency F0/F” value came out at 14.

Nitrazine Yellow: in data set [1], the “Quenching Efficiency Residual F (k)” value turned out to be 59.80 k and the “Quenching Efficiency F0/F” value worked out at 35.

On to Sulfonazo II, for which, in data set [1], the “Quenching Efficiency Residual F (k)” value came out at 98.70 k and the “Quenching Efficiency F0/F” value amounted to 21.
